This test addresses Gli3 (endogenous) (mouse (endogenous in NIH/3T3)) (UniProt Q61602). As to the kind of experiment: affinity purification with mass spectrometry; NIH/3T3 cells treated with 100 nM SAG for 4 h, 'nuclear' and 'cytoplasmic' fractions; goat anti-Gli3 (AF3690) cross-linked to Dynabeads-Protein G, overnight; washes with harsh RIPA (500 mM LiCl), RIPA with 0.8 M urea, mild 0.1% NP-40 buffer; prominent gel bands identified by LC/MS/MS; CRAPome filter (FDR < 10%).

The chains behind the UniProt entries cited, without tags or fusion partners.
UniProt Q61602: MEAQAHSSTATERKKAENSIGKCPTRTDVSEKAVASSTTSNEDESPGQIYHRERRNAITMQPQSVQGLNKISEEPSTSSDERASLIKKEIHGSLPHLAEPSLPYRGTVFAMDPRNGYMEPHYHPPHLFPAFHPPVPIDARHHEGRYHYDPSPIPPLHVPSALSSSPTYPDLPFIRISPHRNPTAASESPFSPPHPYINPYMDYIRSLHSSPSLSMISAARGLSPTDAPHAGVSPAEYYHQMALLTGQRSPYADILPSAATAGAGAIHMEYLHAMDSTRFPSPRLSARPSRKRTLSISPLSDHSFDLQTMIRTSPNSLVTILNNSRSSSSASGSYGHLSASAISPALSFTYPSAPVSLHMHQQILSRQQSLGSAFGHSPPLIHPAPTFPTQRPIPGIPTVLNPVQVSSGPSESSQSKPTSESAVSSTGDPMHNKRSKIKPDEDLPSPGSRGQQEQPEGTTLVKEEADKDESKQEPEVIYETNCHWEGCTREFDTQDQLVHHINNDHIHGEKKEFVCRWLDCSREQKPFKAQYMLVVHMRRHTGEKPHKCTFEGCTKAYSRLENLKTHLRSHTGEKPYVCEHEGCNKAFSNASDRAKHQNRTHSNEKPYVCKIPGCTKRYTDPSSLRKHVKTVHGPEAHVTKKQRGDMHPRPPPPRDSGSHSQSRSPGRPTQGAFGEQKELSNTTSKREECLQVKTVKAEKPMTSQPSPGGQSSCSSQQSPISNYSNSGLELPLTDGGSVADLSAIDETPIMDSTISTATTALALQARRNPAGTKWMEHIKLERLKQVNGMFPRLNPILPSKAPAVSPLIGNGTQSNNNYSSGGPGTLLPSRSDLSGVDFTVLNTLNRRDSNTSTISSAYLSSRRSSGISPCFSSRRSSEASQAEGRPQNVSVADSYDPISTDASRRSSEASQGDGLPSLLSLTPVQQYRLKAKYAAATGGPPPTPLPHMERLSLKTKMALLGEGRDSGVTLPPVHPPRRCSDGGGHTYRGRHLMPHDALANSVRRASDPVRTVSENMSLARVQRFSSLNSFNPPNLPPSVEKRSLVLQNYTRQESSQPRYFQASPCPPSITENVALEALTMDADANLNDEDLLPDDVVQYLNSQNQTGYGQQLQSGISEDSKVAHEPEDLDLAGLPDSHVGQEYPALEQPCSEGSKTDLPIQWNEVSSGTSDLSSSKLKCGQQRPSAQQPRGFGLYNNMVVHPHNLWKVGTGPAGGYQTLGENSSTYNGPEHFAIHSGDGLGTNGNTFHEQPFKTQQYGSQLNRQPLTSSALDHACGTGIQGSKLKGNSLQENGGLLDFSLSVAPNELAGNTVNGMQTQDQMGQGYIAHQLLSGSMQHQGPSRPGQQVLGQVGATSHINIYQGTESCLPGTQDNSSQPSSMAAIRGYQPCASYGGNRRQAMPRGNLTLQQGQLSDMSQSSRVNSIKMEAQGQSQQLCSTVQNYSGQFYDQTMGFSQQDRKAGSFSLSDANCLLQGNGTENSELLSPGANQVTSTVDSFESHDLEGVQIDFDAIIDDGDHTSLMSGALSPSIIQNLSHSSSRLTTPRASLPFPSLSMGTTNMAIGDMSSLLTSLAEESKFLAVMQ

No constants are given. Whether binding was seen depends on the method and setting. Binding seen in cells or lysates may run through a third protein. These calls come from enrichment with a bait or labelling near it, and not all partners need be listed.

B1: Xpo7 (endogenous) (protein, UniProt Q9EPK7 1-1087)
chain: MADHVQSLAQLENLCKQLYETTDTTTRLQAEKALVEFTNSPDCLSKCQLLLERGSSSYSQLLAATCLTKLVSRTNNPLPLEQRIDIRNYVLNYLATRPKLATFVTQALIQLYARITKLGWFDCQKDDYVFRNAITDVTRFLQDSVEYCIIGVTILSQLTNEINQADTTHPLTKHRKIASSFRDSSLFDIFTLSCNLLKQASGKNLNLNDESQHGLLMQLLKLTHNCLNFDFIGTSTDESSDDLCTVQIPTSWRSAFLDSSTLQLFFDLYHSIPPSFSPLVLSCLVQIASVRRSLFNNAERAKFLSHLVDGVKRILENPQSLSDPNNYHEFCRLLARLKSNYQLGELVKVENYPDVIRLIANFTVTSLQHWEFAPNSVHYLLSLWQRLAASVPYVKATEPHMLETYTPEVTKAYITSRLESVHIILRDGLEDPLEDTGLVQQQLDQLSTIGRCEYEKTCALLVQLFDQSAQSYQELLQSASASPMDIAVQEGRLTWLVYIIGAVIGGRVSFASTDEQDAMDGELVCRVLQLMNLTDSRLAQAGNEKLELAMLSFFEQFRKIYIGDQVQKSSKLYRRLSEVLGLNDETMVLSVFIGKVITNLKYWGRCEPITSKTLQLLNDLSIGYSSVRKLVKLSAVQFMLNNHTSEHFSFLGINNQSNLTDMRCRTTFYTALGRLLMVDLGEDEDQYEQFMLPLTAAFEAVAQMFSTNSFNEQEAKRTLVGLVRDLRGIAFAFNAKTSFMMLFEWIYPSYMPILQRAIELWYHDPACTTPVLKLMAELVHNRSQRLQFDVSSPNGILLFRETSKMITMYGNRILTLGEVPKDQVYALKLKGISICFSMLKAALSGSYVNFGVFRLYGDDALENALQTFIKLLLSIPHSDLLDYPKLSQSYYSLLEVLTQDHMNFIASLEPHVIMYILSSISEGLTALDTMVCTGCCSCLDHIVTYLFKQLSRSTKKRTTPLNRESDCFLHIMQQHPAMIQQMLSTVLNIIIFEDCRNQWSMSRPLLGLILLNEKYFSDLRNSIVNSQPPEKQQAMHLCFENLMEGIERNLLTKNRDRFTQNLSAFRREVNDSMKNSTYGVNSNDMMS
Take B1: the binding entry is on record as “binds”.

B2: Kif7 (endogenous) (protein, UniProt B7ZNG0 1-1348)
chain: MGLEAQRLPGAEEAPVRVALRVRPLLPKELLHGHQSCLRVEPERGRITLGRDRHFGFHVVLGEDTGQEAVYQACVQPLLEAFFEGFNATVFAYGQTGSGKTYTMGEASVASLHEDEQGIIPRAMAEAFKLIDENDLLDCLVHVSYLELYKEEFRDLLEVGTASRDIQLREDDRGNVVLCGVKEVDVEGLDEVLSLLEMGNAARHTGATHFNRLSSRSHTVFTVTLEQRGRTPSRLPRPAAGHLLVSKFHFVDLAGSERVLKTGSTGERLKESIQINSTLLALGNVISALGDPQRRGSHIPYRDSKITRILKDSLGGNAKTVMIACVSPSSSDFDETLNTLNYASRAQNIRNRATVNWHPEAERVPEEQAAGARGPPRHRSETRIIHRGRRVPCPAVGSAAVAAGLGAECARCRARTSAAYSLLRELQAEPGLPGAAARKVRDWLCAVEGERSTLSSASGPDSGIESAPAEDQAAQGTSGRKGDEGTQQLLTLQSQVARLEEENRDFLAALEDAMEQYKLQSDRLREQQEEMVELRLRLELAQPGWGAPGLLQGLPPGSFVPRPHTAPLGGAHTHMLGMMPSTCLPGEEVSSEQQVVSGKEVKAEVLAQADKLRSASSTTSEEEGEEEEEEEEEEEEPPRRTLYLRRNGISNWSQRAGLSPGSPPDRKGPEVCPEEPAAAIPAPQAVGSGKVPVQTRQAPAAMASEWRLAQAQQKIRELAINIRMKEELIGELVRTGKAAQALNRQHSQRIRELEQEAERVRAELCEGQRQLRELEGREPQDASERSRLQEFRKRVAAAQSQVQVLKEKKQATERLVSLSAQSETRLQELERNVQLMRRQQGQLQRRLREETEQKRRLETEMNKRQHRVKELELKHEQQQKILKIKTEEIAAFQRKRRSGSNGSVVSLEQQQKIEEQKKWLDQEMEKVLQQRRALEELGEELRKREVILAKKEALMQEKTGLESKRLRSSQALNEDIVRVSSRLEHLEKELSEKSGQLRQGSAQNQQQIRGEIDTLRQEKDSLLKQRLEIDSKLRQGSLLSPEEERTLFQLDEAIEALDAAIEYKNEAITCRQRVLRASASLLSQCEMNLMAKLSYLSSSETRALLCKYFDKVVTLREEQHQQQIAFSELEMQLEEQQRLVYWLEVALERQRLEMDRQLTLQQKEHEQNVQLLLQQGRDHLGEGLADSKRQYEARIHALEKELGRHMWINQELKQKLSAGSTAGQSQGCERRSLCLENRQCLGNEDGLHPAAPEPLWQSSLLEGVSRVWDESRDLVHAPLPLTWKRSSLCSEQGSSEESRVRETTEPPVGRVLPMGEVGLSWNFGPLPKPRWEPRRTSPGMIDVRKNPL
As for B2, the binding result was “binds”.

B3: SuFu (endogenous) (protein, UniProt Q9Z0P7 1-484)
chain: MAELRPSVAPGPAAPPASGPSAPPAFASLFPPGLHAIYGECRRLYPDQPNPLQVTAIVKYWLGGPDPLDYVSMYRNMGSPSANIPEHWHYISFGLSDLYGDNRVHEFTGTDGPSGFGFELTFRLKRETGESAPPTWPAELMQGLARYVFQSENTFCSGDHVSWHSPLDNSESRIQHMLLTEDPQMQPVRTPFGVVTFLQIVGVCTEELHSAQQWNGQGILELLRTVPIAGGPWLITDMRRGETIFEIDPHLQERVDKGIETDGSNLSGVSAKCAWDDLSRPPEDEEDSRSICLGTQPRRLSGKDTEQIRETLRRGLEINSKPVLPPINSQRQNGLTHDRAPSRKDSLGSDSSTAIIPHELIRTRQLESVHLKFNQESGALIPLCLRGRLLHGRHFTYKSITGDMAITFVSTGVEGAFATEEHPYAAHGPWLQILLTEEFVEKMLEDLEDLTSPEEFKLPKEYSWPEKKLKVSILPDVVFDSPLH
As for B3, the binding entry is reported as “binds”.

The values above are taken from publication PMC10879184.
